{"source": "PubChem BioAssay AID248", "about": "(DTP/NCI, 2004)", "system": "L1210 leukemia ip in BDF1 mice, survival T/C", "experiment": "NCI In Vivo Anticancer Drug Screen. Data for tumor model L1210 Leukemia (intraperitoneal) in B6D2F1 (BDF1) mice", "conditions": "T/C endpoint: mean survival time, higher T/C = longer survival", "note": "The list shows only some results of the screen, not a fair sample: it is rich in T/C values a quarter to a half above the control, in often repeated tests (any T/C) and in doses without a T/C. Other doses and runs of a compound stand elsewhere. T/C is the treated group as % of the vehicle group. For survival time, the PubChem record calls one and a half times the control and up active, and a quarter to a half above the control has no call in these data; cut-offs in other NCI protocols can differ. Schedule codes are those of the source, read here as Q, the interval in days (D) or hours (H), X, the number of doses. Some T/C values carry the count of animals alive at the toxicity check (mostly the fifth day); without a count, all were alive then. Some entries hold several experiments; their values stand side by side, smallest first. Marks such as (2×) say how often a value occurs here. Some schedule codes hold Z or #, which are not explained here.", "data": [{"smiles": "CN(C)/N=N/c1nc[nH]c1C(N)=O", "values": [{"measurement": "T/C", "setting": "dose: 50.0 mg/kg/injection, schedule: Q01DX Z (sc), vehicle: carboxymethylcellulose (CMC)", "value": "125 and 130 % of control"}, {"measurement": "T/C", "setting": "dose: 50.0 mg/kg/injection, schedule: Q#A X034 (ip), vehicle: carboxymethylcellulose (CMC)", "value": "139 % of control [9 of 10 alive]"}, {"measurement": "T/C", "setting": "dose: 53.0 mg/kg/injection, schedule: Q01DX Z (ip), vehicle: carboxymethylcellulose (CMC)", "value": "126 % of control"}, {"measurement": "T/C", "setting": "dose: 53.0 mg/kg/injection, schedule: Q01DX Z (ip), vehicle: saline", "value": "139 % of control"}, {"measurement": "T/C", "setting": "dose: 60.0 mg/kg/injection, schedule: Q01DX001 (ip), vehicle: carboxymethylcellulose (CMC)", "value": "131 % of control"}, {"measurement": "T/C", "setting": "dose: 62.5 mg/kg/injection, schedule: Q01DX005 (ip), vehicle: clinical formulation", "value": "101, 111 (2×), 115, 119, 128, 136, 138 % of control"}, {"measurement": "T/C", "setting": "dose: 65.0 mg/kg/injection, schedule: Q01DX009 (ip), vehicle: steroid suspending solution", "value": "130 % of control"}, {"measurement": "T/C", "setting": "dose: 65.0 mg/kg/injection, schedule: Q01DX019 (ip), vehicle: steroid suspending solution, evaluated on day 5", "value": "134 % of control"}, {"measurement": "T/C", "setting": "dose: 65.0 mg/kg/injection, schedule: Q01DX019 (ip), vehicle: steroid suspending solution, evaluated on day 30", "value": "131 % of control"}, {"measurement": "T/C", "setting": "dose: 65.0 mg/kg/injection, schedule: Q01DX Z (ip), vehicle: steroid suspending solution", "value": "130 % of control"}, {"measurement": "T/C", "setting": "dose: 65.0 mg/kg/injection, schedule: Q## X009 (ip), vehicle: steroid suspending solution, evaluated on day 5", "value": "143 % of control"}, {"measurement": "T/C", "setting": "dose: 65.0 mg/kg/injection, schedule: Q## X009 (ip), vehicle: steroid suspending solution, evaluated on day 30", "value": "139 % of control"}, {"measurement": "T/C", "setting": "dose: 67.0 mg/kg/injection, schedule: Q01DX009 (ip), vehicle: carboxymethylcellulose (CMC)", "value": "132 % of control"}, {"measurement": "T/C", "setting": "dose: 70.0 mg/kg/injection, schedule: Q01DX015 (ip), vehicle: carboxymethylcellulose (CMC), evaluated on day 5", "value": "123, 126, 135 % of control"}, {"measurement": "T/C", "setting": "dose: 70.0 mg/kg/injection, schedule: Q01DX015 (ip), vehicle: carboxymethylcellulose (CMC), evaluated on day 45", "value": "123, 126, 135 % of control [7 of 8 alive]"}, {"measurement": "T/C", "setting": "dose: 75.0 mg/kg/injection, schedule: Q01DX Z (ip), vehicle: carboxymethylcellulose (CMC)", "value": "146 and 147 % of control"}, {"measurement": "T/C", "setting": "dose: 75.0 mg/kg/injection, schedule: Q03DX Z (ip), vehicle: carboxymethylcellulose (CMC)", "value": "130 % of control"}, {"measurement": "T/C", "setting": "dose: 80.0 mg/kg/injection, schedule: Q01DX Z (ip), vehicle: carboxymethylcellulose (CMC)", "value": "147 % of control"}, {"measurement": "T/C", "setting": "dose: 80.0 mg/kg/injection, schedule: Q01DX Z (ip), vehicle: saline", "value": "145 % of control"}, {"measurement": "T/C", "setting": "dose: 87.0 mg/kg/injection, schedule: Q07DX Z (ip), vehicle: carboxymethylcellulose (CMC)", "value": "131 % of control"}, {"measurement": "T/C", "setting": "dose: 89.0 mg/kg/injection, schedule: Q01DX005 (ip), vehicle: water, evaluated on day 5", "value": "129 % of control"}, {"measurement": "T/C", "setting": "dose: 89.0 mg/kg/injection, schedule: Q01DX005 (ip), vehicle: water, evaluated on day 30", "value": "129 % of control"}, {"measurement": "T/C", "setting": "dose: 90.0 mg/kg/injection, schedule: Q01DX001 (ip), vehicle: carboxymethylcellulose (CMC)", "value": "136 % of control"}, {"measurement": "T/C", "setting": "dose: 91.0 mg/kg/injection, schedule: Q01DX009 (ip), vehicle: saline with Tween-80, evaluated on day 5", "value": "126 and 137 % of control"}, {"measurement": "T/C", "setting": "dose: 91.0 mg/kg/injection, schedule: Q01DX009 (ip), vehicle: saline with Tween-80, evaluated on day 60", "value": "126 and 137 % of control"}, {"measurement": "T/C", "setting": "dose: 95.0 mg/kg/injection, schedule: Q01DX009 (ip), vehicle: carboxymethylcellulose (CMC)", "value": "146 % of control"}, {"measurement": "T/C", "setting": "dose: 97.0 mg/kg/injection, schedule: Q01DX009 (ip), vehicle: carboxymethylcellulose (CMC)", "value": "138, 139, 149, 161 % of control"}, {"measurement": "T/C", "setting": "dose: 100.0 mg/kg/injection, schedule: Q01DX005 (ip), vehicle: other", "value": "136 % of control [9 of 10 alive]"}, {"measurement": "T/C", "setting": "dose: 100.0 mg/kg/injection, schedule: Q01DX006 (iv), vehicle: carboxymethylcellulose (CMC)", "value": "146 % of control"}, {"measurement": "T/C", "setting": "dose: 100.0 mg/kg/injection, schedule: Q01DX009 (ip), vehicle: Klucel (hydroxypropylcellulose) (HPC), evaluated on day 20", "value": "160 % of control"}, {"measurement": "T/C", "setting": "dose: 100.0 mg/kg/injection, schedule: Q01DX009 (ip), vehicle: Klucel (hydroxypropylcellulose) (HPC), evaluated on day 30", "value": "93, 103, 104, 124, 134 [5 of 6 alive], 135, 144 (2×), 145, 148, 150, 153, 170 % of control"}, {"measurement": "T/C", "setting": "dose: 100.0 mg/kg/injection, schedule: Q01DX009 (ip), vehicle: carboxymethylcellulose (CMC), evaluated on day 5", "value": "134 % of control"}, {"measurement": "T/C", "setting": "dose: 100.0 mg/kg/injection, schedule: Q01DX009 (ip), vehicle: carboxymethylcellulose (CMC), evaluated on day 45", "value": "134 % of control"}, {"measurement": "T/C", "setting": "dose: 100.0 mg/kg/injection, schedule: Q01DX009 (ip), vehicle: other", "value": "142 and 147 % of control"}, {"measurement": "T/C", "setting": "dose: 100.0 mg/kg/injection, schedule: Q01DX009 (ip), vehicle: saline with Tween-80", "value": "139 % of control"}, {"measurement": "T/C", "setting": "dose: 100.0 mg/kg/injection, schedule: Q01DX010 (ip), vehicle: clinical formulation", "value": "140 % of control"}, {"measurement": "T/C", "setting": "dose: 100.0 mg/kg/injection, schedule: Q01DX Z (oral), vehicle: carboxymethylcellulose (CMC)", "value": "137 % of control"}, {"measurement": "T/C", "setting": "dose: 100.0 mg/kg/injection, schedule: Q04DX003 (ip), vehicle: Klucel (hydroxypropylcellulose) (HPC)", "value": "100, 105, 106, 110, 111 % of control (2×)"}, {"measurement": "T/C", "setting": "dose: 100.0 mg/kg/injection, schedule: Q04DX003 (ip), vehicle: water", "value": "126 % of control"}, {"measurement": "T/C", "setting": "dose: 100.0 mg/kg/injection, schedule: Q## X009 (ip), vehicle: carboxymethylcellulose (CMC)", "value": "143 % of control"}, {"measurement": "T/C", "setting": "dose: 105.0 mg/kg/injection, schedule: Q01DX015 (ip), vehicle: carboxymethylcellulose (CMC), evaluated on day 5", "value": "140 % of control"}]}]}
